The source of these data is paper PMC5607100.

Results are given in words; binding and its absence hold for the method and conditions named. For some assays here: In cells and extracts the contact can be indirect. Some results given as binding are weak or reduced against the parent protein; the word gives no strength. For some assays here: Sequences can lack the tags named with a protein.

Assay [1] concerns the target T1, Ydl121c, split DHFR fusion (S. cerevisiae) (UniProt Q07541).
T1 sequence: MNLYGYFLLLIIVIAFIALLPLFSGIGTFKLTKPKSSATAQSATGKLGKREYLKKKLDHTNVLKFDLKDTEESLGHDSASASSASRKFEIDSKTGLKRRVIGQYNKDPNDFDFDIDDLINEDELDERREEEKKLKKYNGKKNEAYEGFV
Nature of the assay: split reporter; in vivo split DiHydro Folate Reductase complementation (Split DHFR screen) in yeast, Ydl121c as query.

For assay [2], the target named is Pma1, plasma membrane H^+‐ATPase (S. cerevisiae (endogenous in BY4741-based strains)) (UniProt P05030). The experiment in a line: native gel or EMSA; blue native PAGE (3.5%-15%) of yeast microsomes solubilised in ComplexioLyte 48 buffer, 30 minutes at 4°C; Pma1 detected by blot; WT, Δydl121c and Δykl077w strains.

B1: Ykl077w, split DHFR fusion (protein, UniProt P36081 23-392)
chain: ARQVVRPKEKMTTSEEVKPWLRTVYGSQKELVTPTVIAGVTFSEKPEETPNPLKPWVSLEHDGRPKTIKPEINKGRTKKGRPDYSTYFKTVSSHTYSYEELKAHNMGPNEVFVEEEYIDEDDTYVSLNPIVRCTPNLYFNKGLAKDIRSEPFCTPYENSRWKVDKTYFVTWYTRFFTDENSGKVADKVRVHLSYVKENPVEKGNYKRDIPATFFSSEWIDNDNGLMPVEVRDEWLQDQFDRRIVVSVQPIYISDEDFDPLQYGILLYITKGSKVFKPTKEQLALDDAGITNDQWYYVALSIPTVVVVFFVFMYFFLYVNGKNRDFTDVTRKALNKKRRVLGKFSEMKKFKNMKNHKYTELPSYKKTSKQN
For the molecule B1, the binding entry in assay [1] is “binds”.

B2: Pma1, plasma membrane H^+‐ATPase (protein, UniProt P05030 1-918)
chain: MTDTSSSSSSSSASSVSAHQPTQEKPAKTYDDAASESSDDDDIDALIEELQSNHGVDDEDSDNDGPVAAGEARPVPEEYLQTDPSYGLTSDEVLKRRKKYGLNQMADEKESLVVKFVMFFVGPIQFVMEAAAILAAGLSDWVDFGVICGLLMLNAGVGFVQEFQAGSIVDELKKTLANTAVVIRDGQLVEIPANEVVPGDILQLEDGTVIPTDGRIVTEDCFLQIDQSAITGESLAVDKHYGDQTFSSSTVKRGEGFMVVTATGDNTFVGRAAALVNKAAGGQGHFTEVLNGIGIILLVLVIATLLLVWTACFYRTNGIVRILRYTLGITIIGVPVGLPAVVTTTMAVGAAYLAKKQAIVQKLSAIESLAGVEILCSDKTGTLTKNKLSLHEPYTVEGVSPDDLMLTACLAASRKKKGLDAIDKAFLKSLKQYPKAKDALTKYKVLEFHPFDPVSKKVTAVVESPEGERIVCVKGAPLFVLKTVEEDHPIPEDVHENYENKVAELASRGFRALGVARKRGEGHWEILGVMPCMDPPRDDTAQTVSEARHLGLRVKMLTGDAVGIAKETCRQLGLGTNIYNAERLGLGGGGDMPGSELADFVENADGFAEVFPQHKYRVVEILQNRGYLVAMTGDGVNDAPSLKKADTGIAVEGATDAARSAADIVFLAPGLSAIIDALKTSRQIFHRMYSYVVYRIALSLHLEIFLGLWIAILDNSLDIDLIVFIAIFADVATLAIAYDNAPYSPKPVKWNLPRLWGMSIILGIVLAIGSWITLTTMFLPKGGIIQNFGAMNGIMFLQISLTENWLIFITRAAGPFWSSIPSWQLAGAVFAVDIIATMFTLFGWWSENWTDIVTVVRVWIWSIGIFCVLGGFYYEMSTSEAFDRLMNGKPMKEKKSTRSVEDFMAAMQRVSTQHEKET
Regarding B2, the binding entry in assay [2] is “binds”.
